The assay deals with His6-tagged human PML protein (isoform III) (human) (UniProt P29590). Kind of assay: non-reducing SDS-PAGE and immunoblot.

Sequences of proteins named here, by UniProt entry; tags and fusion partners are left off. A change or cut given only in a name is not applied to a line headed by its entry. A line that says so, or that is headed by a name, gives the form on record, which may keep a tag or linker.
His6-tagged human PML protein (isoform III) (P29590-9, form named): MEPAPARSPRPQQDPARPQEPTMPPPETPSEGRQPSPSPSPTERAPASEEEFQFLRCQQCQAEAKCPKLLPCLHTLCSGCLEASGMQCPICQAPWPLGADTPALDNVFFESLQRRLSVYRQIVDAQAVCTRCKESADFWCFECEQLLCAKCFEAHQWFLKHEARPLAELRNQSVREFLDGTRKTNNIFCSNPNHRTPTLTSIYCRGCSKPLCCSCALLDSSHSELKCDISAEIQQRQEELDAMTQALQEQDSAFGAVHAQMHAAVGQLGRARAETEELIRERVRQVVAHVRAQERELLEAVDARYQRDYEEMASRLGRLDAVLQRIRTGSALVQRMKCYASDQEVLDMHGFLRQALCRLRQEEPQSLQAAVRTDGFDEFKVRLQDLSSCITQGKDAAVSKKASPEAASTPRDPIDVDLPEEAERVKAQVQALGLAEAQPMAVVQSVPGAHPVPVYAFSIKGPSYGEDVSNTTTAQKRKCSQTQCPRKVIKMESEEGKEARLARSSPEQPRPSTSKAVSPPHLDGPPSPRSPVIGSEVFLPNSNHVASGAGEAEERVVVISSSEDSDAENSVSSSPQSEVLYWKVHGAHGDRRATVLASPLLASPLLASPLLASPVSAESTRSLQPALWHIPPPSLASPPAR

No constants are given. Whether binding was seen depends on the method and setting. Some results given as binding are weak or reduced against the parent protein; the word gives no strength.

“His6-tagged human PML protein (isoform III) (from UniProt P29590-9 1-641)”: the binding entry is listed as “binds”.

These data come from paper PMC5225316.
